Measurements published in PMC4703084.
These are yes or no findings as the source states them, for the method shown. Some results given as binding are weak or reduced against the parent protein; the word gives no strength. Each block holds one molecule with its values, some of them ahead of it.

Chains of the proteins cited; added tags and fusions are not shown.
UniProt Q7KNM2: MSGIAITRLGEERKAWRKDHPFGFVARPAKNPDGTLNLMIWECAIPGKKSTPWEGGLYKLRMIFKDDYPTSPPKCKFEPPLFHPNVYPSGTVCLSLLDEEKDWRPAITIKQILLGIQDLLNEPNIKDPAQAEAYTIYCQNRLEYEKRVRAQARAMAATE

Legend:
[1] = target: T1, Vilya (Drosophila melanogaster) (UniProt O76908); assay: two-hybrid; preliminary studies, yeast two-hybrid, no details given
T1 sequence: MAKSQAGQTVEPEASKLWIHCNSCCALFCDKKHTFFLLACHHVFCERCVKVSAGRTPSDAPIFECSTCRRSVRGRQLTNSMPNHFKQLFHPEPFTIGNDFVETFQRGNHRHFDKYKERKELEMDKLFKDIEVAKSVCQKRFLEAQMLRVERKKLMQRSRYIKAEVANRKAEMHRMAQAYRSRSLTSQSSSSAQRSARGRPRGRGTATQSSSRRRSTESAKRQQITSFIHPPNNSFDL

[2] = target: T1, Vilya (Drosophila melanogaster); assay: two-hybrid; Matchmaker Gold system (Clontech), AH109 used in place of Y2HGold, Y187 for the bait; bait and prey vectors pGBKT7 and pGADT7; Vilya forms as bait; diploids equalised by OD600, six two-fold dilutions plated on SD -Leu-Trp and on the reporter plate SD -Leu-Trp-Ade-His + X-alpha-gal
[3] = target: T2, Vilya^826 (Drosophila melanogaster) (UniProt O76908); assay: as above
T2 sequence: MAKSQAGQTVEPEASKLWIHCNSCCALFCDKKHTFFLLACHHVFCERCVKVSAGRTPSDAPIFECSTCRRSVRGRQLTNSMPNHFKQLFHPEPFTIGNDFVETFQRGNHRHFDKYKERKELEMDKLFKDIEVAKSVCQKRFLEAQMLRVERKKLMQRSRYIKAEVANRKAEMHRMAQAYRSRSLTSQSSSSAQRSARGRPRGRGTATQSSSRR

binding [1]: no binding
Molecule: Drosophila Ubc9 (from UniProt Q7KNM2 1-159) (enzyme)

binding [2]: binds
binding [3]: binds
B1: Mei-P22 (protein, UniProt Q9VS36 1-331)
chain: MDRTTVVPSPASTYCSFMGGSQHSPLRRSQRLIDKENRDLQKIPPKSLSPQLFGNTEDDYSELLLQQGKVVHLKPAAKLVPVRSSDNLVHLGSRDKVVPLKTSNRIVHLKPPYKIIHLKSLDEVEKTVKKKNNIQKEVHQRNSQRRSIQCTPKKRGRKPKQPAKKLQSRISTDQLGSTPSPSKLPAKYPAHFVHQLPPAEDSSCATRRRSLSAPAMQLSDLSLTPDEIQTPERRGEIVNKSPSDLDSDVSLNFSLSDSIGEIFGTKDISSILTMQRPRQYILLEEHLPTLATMLNVDLERLRCVLDITQGLSHEQILRFPIKHEEDELEVP
